{
  "source": "patent US12269021B2",
  "about": "“Artificial protein catalyst” (Glytech, Inc., priority 2019, dated 2025)",
  "test": "biocompatibility: RCM of 1d in serum-containing media",
  "format": "biochemical",
  "settings": "37° C., 2 hours",
  "data": [
    {"molecule": "C=CCC(CC=C)(COC(=O)c1ccccc1)COC(=O)c1ccccc1", "note": "[1d, 4,4-bis((benzoyloxy)methyl)-1,6-heptadiene]", "values": [
      {"measurement": "collected starting material", "setting": "1:8:1 fetal bovine serum/DMEM medium/dioxane", "value": 8, "unit": "%"},
      {"measurement": "collected starting material", "setting": "1:8:1 normal rat serum/PBS buffer/dioxane", "value": 3, "unit": "%"}
    ]}
  ]
}
